Results from one PubChem assay

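Luminescence from an EWS-FLI1 target-promoter (NR0B1) reporter, set against a CMV-promoter reporter, two days after silencing single genes in TC32 Ewing sarcoma cells.
Each siRNA was applied at 20 nM.
A z-score of the log NR0B1-over-CMV signal, less the median of siRNAs with the same seed; more negative means a stronger specific loss of the NR0B1 reporter.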

This is part of the screen; most of the strongest results are not listed here.
Sequences are the guide (antisense) strand, without overhang.

Sequence | gene | seed-corrected z-score
UAUUGAGCUCUUCCUGUCU | MYL3 | 0.4583
UAUGUAAACAUAUAGAGCU | TVP23B | -0.2634
UUCGAGACAGAGAUAAAGC | FOXL2NB | -0.5149
UCCAUAACUAGACUGGUUG | HNRNPH2 | -0.118
UUAGGGAAACGCACGCUGC | PPP1R27 | 0.2981
UAAUAUGAUAUAGCUGAUC | CDKL2 | 0.2241
UAAGGUGUACAGAUACUUU | ZNF723P | -0.4261
UUGGUUAUAAACAAUUCGG | TAS2R40 | -1.059
UGUUCGUUCAGCUUGUCCG | TRAPPC12 | 1.316
UAUAUUACCAUGAACACUU | FAM185A | 0.1923
UGUCUUAUCGCUCACGACC | ABCF2 | -0.01603
AUAGCAAUUCGUAUGUAGG | OR13H1 | 0.5011
UACUCGAUAACAGUCUUGC | COL2A1 | 1.237
UUGCAUACACCUCCCAUUC | SDHAF3 | -0.2084
AACCAUACUGAGUACAUGC | CYB561D1 | -0.4722
UGAUGGAACUUUCUCCUCC | TMEM184B | 0.7621
UCAGGAUCUGGGAUAGGUC | STXBP2 | 0.8949
UCCCUAUCCACGGUGCUGA | ANGPTL6 | 0.03431
UCCUCUAUAAUUAUAUGCC | TMX3 | 0.1349
UCUGUGGAAAUUCUCCCUC | UNC45A | 0.23
UUCUGGUUCCAAUCAAUCU | C1orf100 | -0.3392
UAGGGUUAGGCACUGUGCG | RAB26 | -0.6603
AUAGUUUACGUUCAGCAUG | CEACAM1 | 0.0533
AUAACUCAGAGGUAGAUUC | ATG10 | 0.3035
UCAGCAGACACCCUCUUGA | WHAMM | 0.4234
UCAUGUAGGAGUUCAGAGG | BMP7 | -0.571
UAGAUCAUUGGGAAUGGUG | PCBP3 | 0.2419
UUGUAUACAAGGCAAGAGG | RAET1G | -0.8648
UCCGUUCCCAGUGUGAAGG | SH2D5 | -0.215
UUCUUCAACAUUCAGUUCU | CCDC58 | -0.1888
UUUCUAUAGAAAGUAAAGG | ZNF573 | 0.4476
ACAUUGACCUCUAUUCUGC | KPNA2 | -0.009592
UUCAAUUCCACUUGAGCUC | TMEM64 | 0.5566
UUCCAUUGUUCAUUGCUCU | EGFL8 | -0.02082
AUUACUACCACUCAGGGUG | C18orf54 | 0.04828
UCCAUAUCGUCUUCAAUCC | ITGA6 | -1.2
UGAUGAUCCACUAACAACC | FBXW11 | -1.596
UCCGGAACAUGGUCUUAGC | IRF9 | 0.04207
UUCGAUCUUUGUUUACUCC | ZFC3H1 | -0.09873
UUUGCUCUUCACCUCGACG | PARD6A | -0.1119
UCCUCCAGCACUUAGAUGG | THEMIS2 | 0.1772
UUGAUAUCAGCAGAACACC | CTNNBIP1 | -0.2195
UAACCGACAAAGUACUUUU | ALOX5AP | -0.1763
UCUCGUCGAAGAGUCGCUC | SHOX | -0.9399
UUCUGUAAGGCUCCAAAUG | SVBP | -0.4055
UUCGGUUGAAGGUUUUUCC | ZNF329 | -0.9672
UUACUUGGUCCUUUCGAUG | PIBF1 | -0.08396
AUAGGAGAUACUGCUGGGC | CPA6 | -0.3732
UCUGUGUCCAAAUGUCGGC | HSPB2 | 0.3274
UCUUCUAAGAGUUGCAUGC | SCLT1 | 0.3703
UUCUCUGUUUGGAACAUGG | ELL3 | -0.4512
UCAUGAAGCAGUAGGCGGC | KBTBD11 | 2.651
UUUGUUCUCACAGACACUU | LRCOL1 | 0.4029
UACAUGCAAAAGAGAGUCC | OR5M11 | -0.1775
UCAUAUUCAGAAUCGAUCC | PAPSS1 | 0.1837
UUUAUACUAAAAGAUGAGG | SMIM10 | -1.554
AGACCUAUGUGGAUUGUGC | LINC00668 | -0.6427

Once more, the final 5:

| Sequence | gene | seed-corrected z-score |
|---|---|---|
| `UUUGUUCUCACAGACACUU` | LRCOL1 | 0.4029 |
| `UACAUGCAAAAGAGAGUCC` | OR5M11 | -0.1775 |
| `UCAUAUUCAGAAUCGAUCC` | PAPSS1 | 0.1837 |
| `UUUAUACUAAAAGAUGAGG` | SMIM10 | -1.554 |
| `AGACCUAUGUGGAUUGUGC` | LINC00668 | -0.6427 |

Data taken from PubChem BioAssay AID1159506, deposited by NCATS (2015).